Test results published in US20140038203A1, “METHODS FOR DETECTING OR PREDICTING KIDNEY DISEASE” (MUSC FOUNDATION FOR RESEARCH DEVELOPMENT, priority 2012, published 2014).

Experiment: RRT study: LC-MS/MS urinary proteomics, AKI after cardiac surgery, RRT vs No RRT
Set-up: species or system human
Details: patients who did vs did not require RRT/dialysis
[1] = direction of differential abundance

B1: Plasma serine protease inhibitor (protein, UniProt P05154 26-406, looked up)
Plasma serine protease …: EMKKRVEDLHVGATVAPSSRRDFTFDLYRALASAAPSQSIFFSPVSISMSLAMLSLGAGSSTKMQILEGLGLNLQKSSEKELHRGFQQLLQELNQPRDGFQLSLGNALFTDLVVDLQDTFVSAMKTLYLADTFPTNFRDSAGAMKQINDYVAKQTKGKIVDLLKNLDSNAVVIMVNYIFFKAKWETSFNHKGTQEQDFYVTSETVVRVPMMSREDQYHYLLDRNLSCRVVGVPYQGNATALFILPSEGKMQQVENGLSEKTLRKWLKMFKKRQLELYLPKFSIEGSYQLEKVLPSLGISNVFTSHADLSGISNHSNIQVSEMVHKAVVEVDESGTRAAAATGTIFTFRSARLNSQRLVFNRPFLMFIVDNNILFLGKVNRP
**Q.** For B1, which “Up or Down” value [1] is on record?
**A.** Its value is “Down”.

**Q.** What about the “Mean Fold Change” value of the same molecule?
**A.** The value was 1.536.

B2: Resistin (protein, UniProt Q9HD89 19-108, looked up)
Resistin: KTLCSMEEAINERIQEVAGSLIFRAISSIGLECQSVTSRGDLATCPRGFAVTGCTCGSACGSWDVRAETTCHCQCAGMDWTGARCCRVQP
**Q.** What does the source list for B2?
**A.** Up or Down [1]: Down; Mean Fold Change: 1.3332

B3: Colipase (protein, UniProt P04118 23-112, looked up)
Colipase: GIIINLENGELCMNSAQCKSNCCQHSSALGLARCTSMASENSECSVKTLYGIYYKCPCERGLTCEGDKTIVGSITNTNFGICHDAGRSKQ
**Q.** With B3 as the molecule, how does the “Up or Down” value [1] read?
**A.** The value was “Down”.

**Q.** And the “Mean Fold Change” value?
**A.** The value was 4.037.

B4: Vitelline membrane outer layer protein 1 homolog (protein, UniProt Q7Z5L0 25-202, looked up)
Vitelline membrane outer …: QTDGRNGYTAVIEVTSGGPWGDWAWPEMCPDGFFASGFSLKVEPPQGIPGDDTALNGIRLHCARGNVLGNTHVVESQSGSWGEWSEPLWCRGGAYLVAFSLRVEAPTTLGDNTAANNVRFRCSDGEELQGPGLSWGDFGDWSDHCPKGACGLQTKIQGPRGLGDDTALNDARLFCCRS
**Q.** What does the source list for B4?
**A.** Up or Down [1]: Down; Mean Fold Change: 1.4267

B5: Neutrophil gelatinase-associated lipocalin (protein, UniProt P80188 21-198, looked up)
Neutrophil …: QDSTSDLIPAPPLSKVPLQQNFQDNQFQGKWYVVGLAGNAILREDKDPQKMYATIYELKEDKSYNVTSVLFRKKKCDYWIRTFVPGCQPGEFTLGNIKSYPGLTSYLVRVVSTNYNQHAMVFFKKVSQNREYFKITLYGRTKELTSELKENFIRFSKSLGLPENHIVFPVPIDQCIDG
**Q.** For B5, which “Up or Down” value (direction of urinary abundance) is on record?
**A.** Its value is “Up”.

B6: WAP four-disulfide core domain protein 2 (protein, UniProt Q14508 31-124, looked up)
WAP four-disulfide core …: EKTGVCPELQADQNCTQECVSDSECADNLKCCSAGCATFCSLPNDKEGSCPQVNINFPQLGLCRDQCQVDSQCPGQMKCCRNGCGKVSCVTPNF
**Q.** What does the source list for B6?
**A.** Up or Down [1]: Down; Mean Fold Change: 1.052

B7: Aminopeptidase N (protein, UniProt P15144 2-967, looked up)
Aminopeptidase N: AKGFYISKSLGILGILLGVAAVCTIIALSVVYSQEKNKNANSSPVASTTPSASATTNPASATTLDQSKAWNRYRLPNTLKPDSYRVTLRPYLTPNDRGLYVFKGSSTVRFTCKEATDVIIIHSKKLNYTLSQGHRVVLRGVGGSQPPDIDKTELVEPTEYLVVHLKGSLVKDSQYEMDSEFEGELADDLAGFYRSEYMEGNVRKVVATTQMQAADARKSFPCFDEPAMKAEFNITLIHPKDLTALSNMLPKGPSTPLPEDPNWNVTEFHTTPKMSTYLLAFIVSEFDYVEKQASNGVLIRIWARPSAIAAGHGDYALNVTGPILNFFAGHYDTPYPLPKSDQIGLPDFNAGAMENWGLVTYRENSLLFDPLSSSSSNKERVVTVIAHELAHQWFGNLVTIEWWNDLWLNEGFASYVEYLGADYAEPTWNLKDLMVLNDVYRVMAVDALASSHPLSTPASEINTPAQISELFDAISYSKGASVLRMLSSFLSEDVFKQGLASYLHTFAYQNTIYLNLWDHLQEAVNNRSIQLPTTVRDIMNRWTLQMGFPVITVDTSTGTLSQEHFLLDPDSNVTRPSEFNYVWIVPITSIRDGRQQQDYWLIDVRAQNDLFSTSGNEWVLLNLNVTGYYRVNYDEENWRKIQTQLQRDHSAIPVINRAQIINDAFNLASAHKVPVTLALNNTLFLIEERQYMPWEAALSSLSYFKLMFDRSEVYGPMKNYLKKQVTPLFIHFRNNTNNWREIPENLMDQYSEVNAISTACSNGVPECEEMVSGLFKQWMENPNNNPIHPNLRSTVYCNAIAQGGEEEWDFAWEQFRNATLVNEADKLRAALACSKELWILNRYLSYTLNPDLIRKQDATSTIISITNNVIGQGLVWDFVQSNWKKLFNDYGGGSFSFSNLIQAVTRRFSTEYELQQLEQFKKDNEETGFGSGTRALEQALEKTKANIKWVKENKEVVLQWFTENSK
**Q.** Which results are given for B7?
**A.** Up or Down [1]: Down; Mean Fold Change: 1.743

B8: Galectin-3-binding protein (protein, UniProt Q08380 19-585, looked up)
Galectin-3-binding protein: VNDGDMRLADGGATNQGRVEIFYRGQWGTVCDNLWDLTDASVVCRALGFENATQALGRAAFGQGSGPIMLDEVQCTGTEASLADCKSLGWLKSNCRHERDAGVVCTNETRSTHTLDLSRELSEALGQIFDSQRGCDLSISVNVQGEDALGFCGHTVILTANLEAQALWKEPGSNVTMSVDAECVPMVRDLLRYFYSRRIDITLSSVKCFHKLASAYGARQLQGYCASLFAILLPQDPSFQMPLDLYAYAVATGDALLEKLCLQFLAWNFEALTQAEAWPSVPTDLLQLLLPRSDLAVPSELALLKAVDTWSWGERASHEEVEGLVEKIRFPMMLPEELFELQFNLSLYWSHEALFQKKTLQALEFHTVPFQLLARYKGLNLTEDTYKPRIYTSPTWSAFVTDSSWSARKSQLVYQSRRGPLVKYSSDYFQAPSDYRYYPYQSFQTPQHPSFLFQDKRVSWSLVYLPTIQSCWNYGFSCSSDELPVLGLTKSGGSDRTIAYENKALMLCEGLFVADVTDFEGWKAAIPSALDTNSSKSTSSFPCPAGHFNGFRTVIRPFYLTNSSGVD
**Q.** For B8, which “Up or Down” value [1] is on record?
**A.** Its value is “Down”.

**Q.** What about the “Mean Fold Change” value of the same molecule?
**A.** The value was 1.095.

B9: Biotinidase (protein, UniProt P43251 42-543, looked up)
Biotinidase: AHTGEESVADHHEAEYYVAAVYEHPSILSLNPLALISRQEALELMNQNLDIYEQQVMTAAQKDVQIIVFPEDGIHGFNFTRTSIYPFLDFMPSPQVVRWNPCLEPHRFNDTEVLQRLSCMAIRGDMFLVANLGTKEPCHSSDPRCPKDGRYQFNTNVVFSNNGTLVDRYRKHNLYFEAAFDVPLKVDLITFDTPFAGRFGIFTCFDILFFDPAIRVLRDYKVKHVVYPTAWMNQLPLLAAIEIQKAFAVAFGINVLAANVHHPVLGMTGSGIHTPLESFWYHDMENPKSHLIIAQVAKNPVGLIGAENATGETDPSHSKFLKILSGDPYCEKDAQEVHCDEATKWNVNAPPTFHSEMMYDNFTLVPVWGKEGYLHVCSNGLCCYLLYERPTLSKELYALGVFDGLHTVHGTYYIQVCALVRCGGLGFDTCGQEITEATGIFEFHLWGNFSTSYIFPLFLTSGMTLEVPDQLGWENDHYFLRKSRLSSGLVTAALYGRLYERD
**Q.** What does the source list for B9?
**A.** Up or Down [1]: Down; Mean Fold Change: 1.389

B10: Dermcidin (protein, UniProt P81605 20-110, looked up)
Dermcidin: YDPEAASAPGSGNPCHEASAAQKENAGEDPGLARQAPKPRKQRSSLLEKGLDGAKKAVGGLGKLGKDAVEDLESVGKGAVHDVKDVLDSVL
**Q.** Which “Up or Down” value (direction of urinary abundance) does the source give for B10 here?
**A.** The value was “Up”.

B11: Interleukin-18-binding protein (protein, UniProt O95998 31-194, looked up)
Interleukin-18-binding protein: TPVSQTTTAATASVRSTKDPCPSQPPVFPAAKQCPALEVTWPEVEVPLNGTLSLSCVACSRFPNFSILYWLGNGSFIEHLPGRLWEGSTSRERGSTGTQLCKALVLEQLTPALHSTNFSCVLVDPEQVVQRHVVLAQLWAGLRATLPPTQEALPSSHSSPQQQG
**Q.** What does the source list for B11?
**A.** Up or Down [1]: Down; Mean Fold Change: 9.54

B12: Mannan-binding lectin serine protease 2 (protein, UniProt O00187 16-686, looked up)
Mannan-binding lectin serine …: TPLGPKWPEPVFGRLASPGFPGEYANDQERRWTLTAPPGYRLRLYFTHFDLELSHLCEYDFVKLSSGAKVLATLCGQESTDTERAPGKDTFYSLGSSLDITFRSDYSNEKPFTGFEAFYAAEDIDECQVAPGEAPTCDHHCHNHLGGFYCSCRAGYVLHRNKRTCSALCSGQVFTQRSGELSSPEYPRPYPKLSSCTYSISLEEGFSVILDFVESFDVETHPETLCPYDFLKIQTDREEHGPFCGKTLPHRIETKSNTVTITFVTDESGDHTGWKIHYTSTAQPCPYPMAPPNGHVSPVQAKYILKDSFSIFCETGYELLQGHLPLKSFTAVCQKDGSWDRPMPACSIVDCGPPDDLPSGRVEYITGPGVTTYKAVIQYSCEETFYTMKVNDGKYVCEADGFWTSSKGEKSLPVCEPVCGLSARTTGGRIYGGQKAKPGDFPWQVLILGGTTAAGALLYDNWVLTAAHAVYEQKHDASALDIRMGTLKRLSPHYTQAWSEAVFIHEGYTHDAGFDNDIALIKLNNKVVINSNITPICLPRKEAESFMRTDDIGTASGWGLTQRGFLARNLMYVDIPIVDHQKCTAAYEKPPYPRGSVTANMLCAGLESGGKDSCRGDSGGALVFLDSETERWFVGGIVSWGSMNCGEAGQYGVYTKVINYIPWIENIISDF
**Q.** For B12, which “Up or Down” value [1] is on record?
**A.** The value was “Down”.

**Q.** What about the “Mean Fold Change” value of the same molecule?
**A.** Its value is 1.112.

B13: Peroxiredoxin-2 (protein, UniProt P32119 2-198, looked up)
Peroxiredoxin-2: ASGNARIGKPAPDFKATAVVDGAFKEVKLSDYKGKYVVLFFYPLDFTFVCPTEIIAFSNRAEDFRKLGCEVLGVSVDSQFTHLAWINTPRKEGGLGPLNIPLLADVTRRLSEDYGVLKTDEGIAYRGLFIIDGKGVLRQITVNDLPVGRSVDEALRLVQAFQYTDEHGEVCPAGWKPGSDTIKPNVDDSKEYFSKHN
**Q.** Which “Up or Down” value [1] does the source give for B13 here?
**A.** Its value is “Down”.

**Q.** What about the “Mean Fold Change” value of the same molecule?
**A.** Its value is 2.077.

B14: Cadherin-1 (protein, UniProt P12830 155-882, looked up)
Cadherin-1: DWVIPPISCPENEKGPFPKNLVQIKSNKDKEGKVFYSITGQGADTPPVGVFIIERETGWLKVTEPLDRERIATYTLFSHAVSSNGNAVEDPMEILITVTDQNDNKPEFTQEVFKGSVMEGALPGTSVMEVTATDADDDVNTYNAAIAYTILSQDPELPDKNMFTINRNTGVISVVTTGLDRESFPTYTLVVQAADLQGEGLSTTATAVITVTDTNDNPPIFNPTTYKGQVPENEANVVITTLKVTDADAPNTPAWEAVYTILNDDGGQFVVTTNPVNNDGILKTAKGLDFEAKQQYILHVAVTNVVPFEVSLTTSTATVTVDVLDVNEAPIFVPPEKRVEVSEDFGVGQEITSYTAQEPDTFMEQKITYRIWRDTANWLEINPDTGAISTRAELDREDFEHVKNSTYTALIIATDNGSPVATGTGTLLLILSDVNDNAPIPEPRTIFFCERNPKPQVINIIDADLPPNTSPFTAELTHGASANWTIQYNDPTQESIILKPKMALEVGDYKINLKLMDNQNKDQVTTLEVSVCDCEGAAGVCRKAQPVEAGLQIPAILGILGGILALLILILLLLLFLRRRAVVKEPLLPPEDDTRDNVYYYDEEGGGEEDQDFDLSQLHRGLDARPEVTRNDVAPTLMSVPRYLPRPANPDEIGNFIDENLKAADTDPTAPPYDSLLVFDYEGSGSEAASLSSLNSSESDKDQDYDYLNEWGNRFKKLADMYGGGEDD
**Q.** Which results are given for B14?
**A.** Up or Down [1]: Down; Mean Fold Change: 1.245
